Data on six sequences can be found in article PMC7795741.

Chains of the proteins cited; added tags and fusions are not shown. A line that says so, or that is headed by a name, gives the form on record, which may keep a tag or linker.
STAT3 (Pelteobagrus fulvidraco (yellow catfish)), one chain, as listed by the source: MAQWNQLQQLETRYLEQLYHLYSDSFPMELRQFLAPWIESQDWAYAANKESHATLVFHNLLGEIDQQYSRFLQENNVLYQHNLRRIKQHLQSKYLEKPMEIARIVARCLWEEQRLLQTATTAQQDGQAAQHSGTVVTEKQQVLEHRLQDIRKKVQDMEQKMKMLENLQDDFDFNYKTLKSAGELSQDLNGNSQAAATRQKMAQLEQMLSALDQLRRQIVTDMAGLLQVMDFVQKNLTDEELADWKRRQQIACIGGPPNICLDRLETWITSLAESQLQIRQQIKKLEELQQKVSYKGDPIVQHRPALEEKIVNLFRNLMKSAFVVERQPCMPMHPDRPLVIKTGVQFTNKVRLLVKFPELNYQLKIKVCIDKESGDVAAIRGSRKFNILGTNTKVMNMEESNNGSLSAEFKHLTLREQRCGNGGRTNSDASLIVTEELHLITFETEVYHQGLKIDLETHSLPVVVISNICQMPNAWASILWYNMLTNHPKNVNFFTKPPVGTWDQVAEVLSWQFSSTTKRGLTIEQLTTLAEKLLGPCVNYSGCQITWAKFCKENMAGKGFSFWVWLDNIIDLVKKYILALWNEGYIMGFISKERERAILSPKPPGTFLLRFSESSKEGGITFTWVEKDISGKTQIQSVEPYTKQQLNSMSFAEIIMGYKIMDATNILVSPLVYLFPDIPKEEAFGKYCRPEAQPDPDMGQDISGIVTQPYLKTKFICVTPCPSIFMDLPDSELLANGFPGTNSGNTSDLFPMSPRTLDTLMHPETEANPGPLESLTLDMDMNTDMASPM

For at least one entry, the source does not settle the construct or the ends of the probe. At least one result comes from cells or an extract, where the contact may be indirect. No signal at the amounts used counts as a negative.

What all share (assay): EMSA with unlabeled self-competition
In general terms: In EMSA bound probe runs differently from free probe, usually more slowly.

In data set [1] the test system is PPARα (Pelteobagrus fulvidraco (yellow catfish)). The following applies: HEK293T nuclear extract; EMSA with HEK293T nuclear protein (pcDNA3.1, PPARα, PPARγ or STAT3 transfected), biotin probes; pH and temperature not given (method of cited Xu et al.); protein in an extract; protein details: C-terminal FLAG.
For data set [2], the system named is PPARγ (Pelteobagrus fulvidraco (yellow catfish)). To be noted: HEK293T nuclear extract, EMSA with HEK293T nuclear protein (pcDNA3.1, PPARα, PPARγ or STAT3 transfected), biotin probes, pH and temperature not given (method of cited Xu et al.), protein in an extract, protein details: C-terminal FLAG.
Data set [3] concerns STAT3 (Pelteobagrus fulvidraco (yellow catfish)). To be noted: HEK293T nuclear extract, EMSA with HEK293T nuclear protein (pcDNA3.1, PPARα, PPARγ or STAT3 transfected), biotin probes, pH and temperature not given (method of cited Xu et al.), protein in an extract, protein details: C-terminal FLAG.

For “CCTGTATTTTCACCTAGTTT (double strand) [sf-1-PPARα (-413/-396)]”, the binding result in data set [1] is reported as “no binding”. With “GCATGTGCGTCAAAAGTCCACA (double strand) [cyp17α-PPARα (-881/-864)]”, the binding result in data set [1] is “no binding”. As for “CCATGACCTTTAACCCCTAA (double strand) [cyp17α-PPARγ (-89/-70)]”, the binding result in data set [2] (PPARγ overexpression increased band) was “binds”. Take “TAAACACTTAAGGAAAATACAAA (double strand) [sf-1-STAT3 (-1106/-1096)]”: in data set [3] (self-competitor competes, but STAT3 overexpression reduced band brightness), the binding result is “binds”.

In the case of “GGAAAATTCCAGAAAATGAATC (double strand) [cyp17α-STAT3 (-1669/-1660)]”, in data set [3], the binding result is on record as “no binding”. For “GTGAATTGACTTTTGTAGAGT (double strand) [sf-1-PPARγ (-1396/-1388)]”, the binding result in data set [2] was “no binding”.
